Data reported in the supplement of paper PMC12067093, “Discovery and optimisation of a covalent ligand for TRIM25 and its application to targeted protein ubiquitination” (Chemical Science, 2025).
The other results are listed elsewhere or left out.

Chains of the proteins cited; added tags and fusions are not shown. Lines headed by an entry give the natural chain unless they say otherwise; changes in a name come on top.
UniProt P00390: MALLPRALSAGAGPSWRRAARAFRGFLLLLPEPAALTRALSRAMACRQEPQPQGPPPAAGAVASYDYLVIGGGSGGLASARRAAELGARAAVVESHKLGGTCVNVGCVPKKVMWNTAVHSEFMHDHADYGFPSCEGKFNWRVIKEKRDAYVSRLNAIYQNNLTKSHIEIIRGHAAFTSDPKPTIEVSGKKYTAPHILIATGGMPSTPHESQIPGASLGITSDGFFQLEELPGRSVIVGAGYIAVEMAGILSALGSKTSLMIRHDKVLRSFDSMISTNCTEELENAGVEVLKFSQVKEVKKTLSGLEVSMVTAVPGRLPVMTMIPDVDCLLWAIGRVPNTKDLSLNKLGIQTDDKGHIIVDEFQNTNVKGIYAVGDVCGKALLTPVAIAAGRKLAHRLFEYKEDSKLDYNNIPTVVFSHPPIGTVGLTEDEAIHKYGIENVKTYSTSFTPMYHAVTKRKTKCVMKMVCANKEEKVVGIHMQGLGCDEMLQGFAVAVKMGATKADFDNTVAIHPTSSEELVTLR
UniProt O95479: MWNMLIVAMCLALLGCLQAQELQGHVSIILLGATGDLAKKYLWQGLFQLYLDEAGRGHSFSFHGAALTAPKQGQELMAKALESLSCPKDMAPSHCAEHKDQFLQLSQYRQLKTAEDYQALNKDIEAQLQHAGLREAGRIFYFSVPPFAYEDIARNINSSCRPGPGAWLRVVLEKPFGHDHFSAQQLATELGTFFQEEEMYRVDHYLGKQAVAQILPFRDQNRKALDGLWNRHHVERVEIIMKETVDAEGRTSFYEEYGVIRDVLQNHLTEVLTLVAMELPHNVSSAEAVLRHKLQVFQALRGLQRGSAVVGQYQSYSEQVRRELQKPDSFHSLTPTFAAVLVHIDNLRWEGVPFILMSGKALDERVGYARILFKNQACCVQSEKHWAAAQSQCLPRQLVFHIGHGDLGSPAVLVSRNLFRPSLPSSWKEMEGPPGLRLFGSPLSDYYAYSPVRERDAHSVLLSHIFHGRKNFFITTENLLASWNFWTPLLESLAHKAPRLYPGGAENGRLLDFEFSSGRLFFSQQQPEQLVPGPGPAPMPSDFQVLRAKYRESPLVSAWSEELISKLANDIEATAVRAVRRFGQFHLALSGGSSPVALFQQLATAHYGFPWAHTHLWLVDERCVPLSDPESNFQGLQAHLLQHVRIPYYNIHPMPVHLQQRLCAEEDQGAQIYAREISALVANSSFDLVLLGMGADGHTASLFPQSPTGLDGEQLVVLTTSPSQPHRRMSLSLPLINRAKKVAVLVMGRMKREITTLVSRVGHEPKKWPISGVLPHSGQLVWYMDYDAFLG
UniProt Q9UJ83: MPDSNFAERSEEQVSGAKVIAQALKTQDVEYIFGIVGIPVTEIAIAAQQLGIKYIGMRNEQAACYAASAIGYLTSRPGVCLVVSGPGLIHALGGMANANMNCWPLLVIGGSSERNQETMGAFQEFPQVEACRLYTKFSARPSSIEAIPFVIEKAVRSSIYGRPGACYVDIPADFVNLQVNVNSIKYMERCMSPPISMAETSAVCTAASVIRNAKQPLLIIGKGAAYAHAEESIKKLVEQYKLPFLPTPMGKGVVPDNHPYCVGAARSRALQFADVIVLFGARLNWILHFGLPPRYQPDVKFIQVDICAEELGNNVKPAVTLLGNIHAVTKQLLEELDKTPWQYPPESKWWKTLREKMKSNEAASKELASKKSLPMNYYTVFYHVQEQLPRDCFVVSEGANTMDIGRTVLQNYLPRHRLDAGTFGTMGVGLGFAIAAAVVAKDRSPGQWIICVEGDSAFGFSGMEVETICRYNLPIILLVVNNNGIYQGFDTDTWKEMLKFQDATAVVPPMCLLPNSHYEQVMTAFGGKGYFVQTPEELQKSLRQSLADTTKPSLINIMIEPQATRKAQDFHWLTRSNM
UniProt P28799: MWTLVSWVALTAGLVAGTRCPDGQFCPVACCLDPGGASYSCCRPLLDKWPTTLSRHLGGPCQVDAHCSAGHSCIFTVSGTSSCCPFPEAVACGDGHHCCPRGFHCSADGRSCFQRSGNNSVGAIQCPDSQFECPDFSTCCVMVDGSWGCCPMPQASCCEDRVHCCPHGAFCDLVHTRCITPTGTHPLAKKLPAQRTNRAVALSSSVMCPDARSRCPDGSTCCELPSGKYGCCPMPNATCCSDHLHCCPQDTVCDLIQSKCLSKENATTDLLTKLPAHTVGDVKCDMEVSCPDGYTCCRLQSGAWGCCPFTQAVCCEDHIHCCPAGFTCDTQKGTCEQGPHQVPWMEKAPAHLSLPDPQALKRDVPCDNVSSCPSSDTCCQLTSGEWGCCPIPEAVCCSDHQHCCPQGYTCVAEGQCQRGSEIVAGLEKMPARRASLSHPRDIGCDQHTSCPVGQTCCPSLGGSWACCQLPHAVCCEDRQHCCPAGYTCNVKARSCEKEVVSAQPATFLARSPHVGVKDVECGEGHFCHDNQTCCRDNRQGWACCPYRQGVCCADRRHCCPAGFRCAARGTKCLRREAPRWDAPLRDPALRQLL
UniProt Q8WUA4: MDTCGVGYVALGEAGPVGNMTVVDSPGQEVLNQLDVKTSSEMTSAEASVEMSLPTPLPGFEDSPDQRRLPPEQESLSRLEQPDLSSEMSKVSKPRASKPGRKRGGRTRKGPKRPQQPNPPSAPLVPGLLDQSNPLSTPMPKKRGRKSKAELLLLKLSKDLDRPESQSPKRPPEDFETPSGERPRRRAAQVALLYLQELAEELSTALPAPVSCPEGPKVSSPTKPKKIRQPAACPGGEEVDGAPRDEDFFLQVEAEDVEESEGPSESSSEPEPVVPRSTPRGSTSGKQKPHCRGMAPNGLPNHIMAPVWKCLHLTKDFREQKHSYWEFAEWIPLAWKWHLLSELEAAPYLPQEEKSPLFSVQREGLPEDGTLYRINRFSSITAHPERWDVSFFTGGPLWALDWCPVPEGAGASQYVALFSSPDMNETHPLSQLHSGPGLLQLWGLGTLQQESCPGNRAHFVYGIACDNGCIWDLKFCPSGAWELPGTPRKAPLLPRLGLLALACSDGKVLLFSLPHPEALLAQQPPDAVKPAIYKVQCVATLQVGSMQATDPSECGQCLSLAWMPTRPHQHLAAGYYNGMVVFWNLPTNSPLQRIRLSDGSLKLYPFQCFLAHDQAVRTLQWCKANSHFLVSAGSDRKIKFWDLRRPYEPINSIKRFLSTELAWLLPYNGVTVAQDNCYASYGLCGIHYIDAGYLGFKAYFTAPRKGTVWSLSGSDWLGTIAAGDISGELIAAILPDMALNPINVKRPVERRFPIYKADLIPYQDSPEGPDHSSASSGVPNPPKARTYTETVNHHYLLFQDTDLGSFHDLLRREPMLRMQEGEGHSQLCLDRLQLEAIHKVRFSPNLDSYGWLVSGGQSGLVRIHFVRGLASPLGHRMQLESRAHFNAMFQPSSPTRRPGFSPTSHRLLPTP
UniProt O14929: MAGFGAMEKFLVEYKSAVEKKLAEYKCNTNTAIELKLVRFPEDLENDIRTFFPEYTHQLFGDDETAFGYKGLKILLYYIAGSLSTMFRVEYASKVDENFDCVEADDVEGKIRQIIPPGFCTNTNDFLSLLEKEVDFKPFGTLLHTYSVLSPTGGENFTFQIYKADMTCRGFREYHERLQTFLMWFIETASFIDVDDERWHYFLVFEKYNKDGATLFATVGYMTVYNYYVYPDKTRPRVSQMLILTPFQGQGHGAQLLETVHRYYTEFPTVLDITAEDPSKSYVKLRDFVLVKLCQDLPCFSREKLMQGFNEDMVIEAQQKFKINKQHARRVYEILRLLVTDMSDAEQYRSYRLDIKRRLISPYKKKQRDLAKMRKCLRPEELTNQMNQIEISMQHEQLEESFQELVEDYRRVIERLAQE
UniProt Q14687: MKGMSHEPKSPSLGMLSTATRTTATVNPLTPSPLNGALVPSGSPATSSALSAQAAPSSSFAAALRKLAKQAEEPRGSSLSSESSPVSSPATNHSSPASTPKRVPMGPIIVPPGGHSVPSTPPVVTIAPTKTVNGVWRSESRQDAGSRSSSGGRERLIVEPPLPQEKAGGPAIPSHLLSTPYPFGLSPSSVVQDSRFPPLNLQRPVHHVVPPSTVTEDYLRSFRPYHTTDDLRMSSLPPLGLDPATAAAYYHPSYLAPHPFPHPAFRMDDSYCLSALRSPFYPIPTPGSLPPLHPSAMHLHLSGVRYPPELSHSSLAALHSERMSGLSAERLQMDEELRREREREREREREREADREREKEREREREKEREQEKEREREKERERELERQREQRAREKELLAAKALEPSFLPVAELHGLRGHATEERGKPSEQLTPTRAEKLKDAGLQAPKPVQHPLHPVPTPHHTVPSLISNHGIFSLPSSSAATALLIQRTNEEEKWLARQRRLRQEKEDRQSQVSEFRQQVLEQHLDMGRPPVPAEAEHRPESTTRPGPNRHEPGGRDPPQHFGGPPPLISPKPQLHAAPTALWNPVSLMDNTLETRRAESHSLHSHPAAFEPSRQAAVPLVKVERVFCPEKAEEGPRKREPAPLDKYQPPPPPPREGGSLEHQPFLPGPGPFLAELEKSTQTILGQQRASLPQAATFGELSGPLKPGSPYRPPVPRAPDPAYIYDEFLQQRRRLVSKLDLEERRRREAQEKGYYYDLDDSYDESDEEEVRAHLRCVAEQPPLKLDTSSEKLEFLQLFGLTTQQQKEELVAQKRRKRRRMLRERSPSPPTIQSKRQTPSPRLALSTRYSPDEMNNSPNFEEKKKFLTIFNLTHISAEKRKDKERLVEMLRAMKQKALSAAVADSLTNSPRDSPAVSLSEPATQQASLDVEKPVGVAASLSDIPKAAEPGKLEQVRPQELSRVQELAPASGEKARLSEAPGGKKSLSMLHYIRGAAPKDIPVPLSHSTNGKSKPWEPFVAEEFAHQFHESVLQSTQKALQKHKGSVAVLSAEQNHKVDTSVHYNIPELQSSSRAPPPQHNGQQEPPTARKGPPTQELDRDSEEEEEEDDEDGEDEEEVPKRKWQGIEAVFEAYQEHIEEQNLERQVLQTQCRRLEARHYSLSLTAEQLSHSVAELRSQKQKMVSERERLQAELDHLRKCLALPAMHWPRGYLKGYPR
UniProt Q9UBQ7: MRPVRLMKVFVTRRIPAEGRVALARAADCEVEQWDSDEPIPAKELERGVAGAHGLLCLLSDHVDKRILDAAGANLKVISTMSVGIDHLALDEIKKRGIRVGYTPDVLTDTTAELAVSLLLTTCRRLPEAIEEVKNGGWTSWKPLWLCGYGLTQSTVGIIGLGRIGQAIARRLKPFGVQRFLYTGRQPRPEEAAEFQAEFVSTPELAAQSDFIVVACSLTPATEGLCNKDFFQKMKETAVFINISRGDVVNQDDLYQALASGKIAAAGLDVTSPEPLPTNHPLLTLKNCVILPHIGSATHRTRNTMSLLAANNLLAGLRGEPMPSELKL
UniProt Q7Z4H7: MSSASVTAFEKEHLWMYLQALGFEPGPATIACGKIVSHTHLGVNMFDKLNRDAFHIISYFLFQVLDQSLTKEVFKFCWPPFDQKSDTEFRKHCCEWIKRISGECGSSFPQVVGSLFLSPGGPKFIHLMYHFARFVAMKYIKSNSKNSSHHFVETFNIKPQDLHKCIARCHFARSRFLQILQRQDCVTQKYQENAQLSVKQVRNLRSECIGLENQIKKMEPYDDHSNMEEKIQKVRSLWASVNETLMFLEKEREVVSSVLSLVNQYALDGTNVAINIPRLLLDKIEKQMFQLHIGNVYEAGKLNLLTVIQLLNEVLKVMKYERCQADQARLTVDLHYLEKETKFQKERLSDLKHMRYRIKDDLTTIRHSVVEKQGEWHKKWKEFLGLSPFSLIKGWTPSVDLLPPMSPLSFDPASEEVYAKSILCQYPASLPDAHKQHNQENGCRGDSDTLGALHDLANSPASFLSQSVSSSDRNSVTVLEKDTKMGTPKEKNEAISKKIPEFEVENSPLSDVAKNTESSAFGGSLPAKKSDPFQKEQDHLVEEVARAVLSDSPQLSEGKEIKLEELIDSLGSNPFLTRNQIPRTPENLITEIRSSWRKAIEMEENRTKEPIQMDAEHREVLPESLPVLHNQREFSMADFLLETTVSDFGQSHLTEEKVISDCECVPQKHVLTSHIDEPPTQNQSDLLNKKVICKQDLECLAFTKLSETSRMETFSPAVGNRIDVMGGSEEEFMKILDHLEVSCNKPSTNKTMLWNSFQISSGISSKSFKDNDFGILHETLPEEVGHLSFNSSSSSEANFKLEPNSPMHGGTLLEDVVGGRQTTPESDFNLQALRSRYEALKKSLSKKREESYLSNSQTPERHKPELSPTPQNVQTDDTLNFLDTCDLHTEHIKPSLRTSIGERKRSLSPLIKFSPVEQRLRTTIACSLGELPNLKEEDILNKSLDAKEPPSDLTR

compound: Cc1cc(ccc1-c1ccccc1)C(=O)N1CCCN(CC1)C(=O)CCl [compound 10]; assay: probe-labelled cysteine peptide fold change vs DMSO (competition) (log2 fold change); higher = less target engagement (more negative = stronger competition); details: 10 µM; THP-1; incubation time: 4 h
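Also: competitive profiling in live THP-1 cells: cysteine peptides tagged with an iodoacetamide desthiobiotin (IA-DTB) probe, intensity after compound treatment relative to DMSO-treated cells.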

Row | Target | probe-labelled cysteine peptide fold change
1 | GSR_P00390_134_KVMWNTAVHSEFMHDHADYGFPSCEGK (UniProt P00390) | -0.0339
2 | H6PD_O95479_95_DMAPSHCAEHK (UniProt O95479) | -0.0877
3 | HACL1_Q9UJ83_392_DCFVVSEGANTMDIGR (UniProt Q9UJ83) | 0.00675
4 | GRN_P28799_558_HCCPAGFR (UniProt P28799) | -0.086
5 | GTF3C2_Q8WUA4_469_AHFVYGIACDNGCIWDLK (UniProt Q8WUA4) | 0.0565
6 | GRN_P28799_164+165+171_VHCCPHGAFCDLVHTR (UniProt P28799) | -0.233
7 | HAT1_O14929_168_ADMTCR (UniProt O14929) | 0.0387
8 | GSE1_Q14687_1151_QVLQTQCR (UniProt Q14687) | 0.0388
9 | GRN_P28799_165_VHCCPHGAFCDLVHTR (UniProt P28799) | 0.0754
10 | GSN_P06396_215_ATEVPVSWESFNNGDCFILDLGNNIHQWCGSNSNRYER (UniProt P06396) | -0.0107
11 | GRHPR_Q9UBQ7_57_GVAGAHGLLCLLSDHVDK (UniProt Q9UBQ7) | 0.0501
12 | HAUS6_Q7Z4H7_443_QHNQENGCR (UniProt Q7Z4H7) | -0.295
13 | GTF3C1_Q12789_1188_VGSELCAGWEEQFEVDREPSLDR (UniProt Q12789) | -0.451
14 | GSN_P06396_331_SEDCFILDHGKDGK (UniProt P06396) | 0.0174
15 | GTSE1_Q9NYZ3_436_DSCLNSK (UniProt Q9NYZ3) | -0.0541
16 | GSK3A_P49840_398_LSPLEACAHSFFDELR (UniProt P49840) | -0.105

An excerpt of these results, as a markdown table:

| Row | Target | probe-labelled cysteine peptide fold change |
| --- | --- | --- |
| 7 | HAT1_O14929_168_ADMTCR (UniProt O14929) | 0.0387 |
| 8 | GSE1_Q14687_1151_QVLQTQCR (UniProt Q14687) | 0.0388 |
| 9 | GRN_P28799_165_VHCCPHGAFCDLVHTR (UniProt P28799) | 0.0754 |
